{"source": "paper PMC7158214", "about": "(Clinical Pharmacology and Therapeutics, 2020)", "key": {"[1]": {"tested_on": "OATP1B", "details": "+RIF600"}, "[2]": {"tested_on": "OATP1B", "test": "Nonlinear regression of AUCR^-1 vs rifampicin Cmax", "format": "in vivo, human", "details": "from AUCR based on AUC0-24h"}}, "data": [{"smiles": "CC(C)c1c(C(=O)Nc2ccccc2)c(-c2ccccc2)c(-c2ccc(F)cc2)n1CC[C@@H](O)C[C@@H](O)CC(=O)O", "note": "[Atorvastatin, atorvastatin]", "values": [{"measurement": "AUC0-24h Geometric Mean Ratio +RIF/Control (90% CI)", "setting": "[1]", "value": 7.3}, {"measurement": "fRIF (fraction sensitive to inhibition by rifampicin)", "setting": "[2]", "value": "0.918 ± 0.032"}]}]}
